Measured values reported in the supplement of paper PMC9226226.
“And” between values parts separate entries of the source, which are not always exact repeats. Equal values may be shown once. The list shows a part of the results. Some well-known active drugs show little effect in this data set, so a weak value is uncertain.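 The cells are human mesenchymal stem cells that lack the Werner syndrome gene and age prematurely. Growth was tracked by automated live-cell imaging in three biological repeats, and the twenty drugs that most raised growth over vehicle were taken forward, with no fixed cutoff stated.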 Bridge positions count the residues as written; N and C are the ends. Square brackets hold non-standard residues; d marks the D form. Peptide text beside a SMILES is read from it. * marks the point of attachment. Ileψ(thiazoline)Cys = CC[C@H](C)[C@H](N)C1=N[C@H](C(=O)*)CS1; dOrn = NCCC[C@@H](N)C(=O)O

System: Werner syndrome hMSCs (WRN-/-)
Experiment: relative cell density (fold change vs vehicle control); higher = more proliferation (geroprotective)
Details: concentration (umol/L): 1, 6 days

Row | Compound | relative cell density (vehicle: DMSO) | relative cell density (vehicle: Water)
1 | COc1nc2ccc(Br)cc2cc1[C@@H](c1ccccc1)[C@@](O)(CCN(C)C)c1cccc2ccccc12 | 1.1 | 
2 | O=C(O)C(=O)O.[NH-][C@@H]1CCCC[C@H]1[NH-].[Pt+2] |  | 1.25
3 | Cc1ccc(NC(=O)c2ccc(CN3CCN(C)CC3)cc2)cc1Nc1nccc(-c2cccnc2)n1 | 1.35 and 1.16 | 
4 | CC(C)C(=O)Oc1ccc(CO)cc1[C@H](CCN(C(C)C)C(C)C)c1ccccc1 | 1.13 | 
5 | CCOC(=O)O[C@]1(C(=O)OCCl)CC[C@H]2[C@@H]3CCC4=CC(=O)C=C[C@]4(C)[C@H]3[C@@H](O)C[C@@]21C | 1.02 | 
6 | C#CCN[C@@H]1CCc2ccccc21 | 1.26 | 
7 | CCOc1nc2cccc(C(=O)OCc3oc(=O)oc3C)c2n1Cc1ccc(-c2ccccc2-c2noc(=O)[nH]2)cc1 | 1.68 | 
8 | CN1c2cc(O)c(N=NC(N)=O)cc2CC1S(=O)(=O)O (configuration not stated) | 1.04 | 
9 | O=C(O)c1cn(C2CC2)c2cc(N3CCNCC3)c(F)cc2c1=O | 1.31 | 
10 | CC(C)NCC(O)COc1ccc(CCOCC2CC2)cc1 (configuration not stated) | 1.01 and 0.991 | 
11 | CCc1nc(N)nc(N)c1-c1ccc(Cl)cc1 | 0.877 | 
12 | CCN(C(=O)c1c(O)c2c(Cl)cccc2n(C)c1=O)c1ccccc1 | 0.994 | 
13 | CN1CC(=O)N2[C@H](c3ccc4c(c3)OCO4)c3[nH]c4ccccc4c3C[C@@H]2C1=O | 1.3 | 
14 | CCCN1CCCC[C@H]1C(=O)Nc1c(C)cccc1C | 0.894 | 
15 | CC(C)(OCc1nn(Cc2ccccc2)c2ccccc12)C(=O)O | 1.15 | 
16 | CNC[C@H](O)c1ccc(O)c(O)c1 | 0.96 and 1.3 | 
17 | COC[C@H]1C[C@@H](c2nc(-c3ccc4c(c3)COc3cc5c(ccc6nc([C@@H]7CC[C@H](C)N7C(=O)[C@@H](NC(=O)OC)C(C)C)[nH]c65)cc3-4)c[nH]2)N(C(=O)[C@H](NC(=O)OC)c2ccccc2)C1 | 0.933 | 
18 | CN1CCN(CCCN2c3ccccc3Sc3ccc(C(F)(F)F)cc32)CC1 | 1.02 | 
19 | CC(S)C(=O)NCC(=O)O (configuration not stated) | 0.964 | 
20 | NC(=O)c1cccc2cn(-c3ccc([C@@H]4CCCNC4)cc3)nc12 | 0.691 and 1.03 | 
21 | CC[C@H](C)[C@H](N)C1=N[C@H](C(=O)N[C@@H](CC(C)C)C(=O)N[C@H](CCC(=O)O)C(=O)N[C@H](C(=O)N[C@H]2CCCCNC(=O)[C@H](CC(N)=O)NC(=O)[C@@H](CC(=O)O)NC(=O)[C@H](Cc3cnc[nH]3)NC(=O)[C@@H](Cc3ccccc3)NC(=O)[C@H]([C@@H](C)CC)NC(=O)[C@@H](CCCN)NC2=O)[C@@H](C)CC)CS1 ({Ileψ(thiazoline)Cys}-L[dE]IK[dOrn]I[dF]H[dD]N; lactam 4-C) |  | 0.984
22 | OC(CNCC(O)C1CCc2cc(F)ccc2O1)C1CCc2cc(F)ccc2O1 (configuration not stated) | 1.12 | 

Exported as tab-separated lines: entries from further up.
Row	Compound	relative cell density (vehicle: DMSO)	relative cell density (vehicle: Water)
1	COc1nc2ccc(Br)cc2cc1[C@@H](c1ccccc1)[C@@](O)(CCN(C)C)c1cccc2ccccc12	1.1	
15	CC(C)(OCc1nn(Cc2ccccc2)c2ccccc12)C(=O)O	1.15	
